PubChem BioAssay AID1224828, NIAID, 2016
The whole screen tested about 17,000 reagents; this is a part drawn at random. In the full data, 762 (4.5%) are marked active. 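Active calls include both raised and lowered p65 entry, mostly lowered; wells with fewer than 50 cells lack a z-score.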 The raw values are shown without normalisation. Reagents against one gene are numbered here. Some reagents were tested in more than one well and are listed for each.

Screen: 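Knock-downs that increase or decrease LPS-induced p65 nuclear translocation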 (primary screen)
Cell system: mouse RAW264.7 G9 macrophage reporter cells (GFP-p65, Tnf promoter-mCherry)
Reagent: siRNA pool against mouse genes, 100 nM
Time to read-out: 2 days siRNA transfection, then 40 min LPS before fixation
Conditions: LPS (Salmonella minnesota R595) at 10 ng/ml
Read-out: 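Imaged p65 nuclear translocation ratio, normalised to the plate median, converted to robust z-scores and averaged across two replicates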
Reading the numbers: p65 translocation robust z-score: higher = more nuclear NF-kappaB p65 after LPS than the plate median; nuclear/cytoplasmic p65 ratio: higher = more nuclear NF-kappaB p65
Rule for the call: 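Active if robust z is above 3.3 (negative regulators) or below -1.56, the Tlr4 control median (positive regulators); activity score 50 or more; control wells not called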
Meaning of the calls: active = hit (p65 shift raised or lowered); inactive = no clear change

The opening 4 records, ahead of the listing:
no.	gene	pool no.	p65 translocation robust z-score	nuclear/cytoplasmic p65 ratio, rep 1	nuclear/cytoplasmic p65 ratio, rep 2	low cell count flag	activity call
1	Epb41 (erythrocyte membrane protein band 4.1)	1	0.48	1.42	1.42	enough cells to score	inactive
2	Prnd (prion like protein doppel)	1	-1.06	1.39	1.24	enough cells to score	inactive
3	Or52d1 (olfactory receptor family 52 subfamily D member 1)	1	1.81	1.52	1.62	enough cells to score	inactive
4	Fimp1 (fertilization influencing membrane protein 1)	1		1.24	1.49	fewer than 50 cells per well; well left out of scoring	inactive

Results, from the first entry:
no.	gene	pool no.	p65 translocation robust z-score	nuclear/cytoplasmic p65 ratio, rep 1	nuclear/cytoplasmic p65 ratio, rep 2	low cell count flag	activity call
1	Epb41 (erythrocyte membrane protein band 4.1)	1	0.48	1.42	1.42	enough cells to score	inactive
2	Prnd (prion like protein doppel)	1	-1.06	1.39	1.24	enough cells to score	inactive
3	Or52d1 (olfactory receptor family 52 subfamily D member 1)	1	1.81	1.52	1.62	enough cells to score	inactive
4	Fimp1 (fertilization influencing membrane protein 1)	1		1.24	1.49	fewer than 50 cells per well; well left out of scoring	inactive
5	Jdp2 (Jun dimerization protein 2)	1	-1.68	1.32	1.2	enough cells to score	active
6	Ube2dnl1 (ubiquitin-conjugating enzyme E2D N-terminal like 1)	1	2.34	2.14	1.83	enough cells to score	inactive
7	Cpne9 (copine family member IX)	1	0.57	1.48	1.58	enough cells to score	inactive
8	Sfrp1 (secreted frizzled-related protein 1)	1	0.06	1.55	1.58	enough cells to score	inactive
9	Cst7 (cystatin F (leukocystatin))	1	-1.88	1.31	1.06	enough cells to score	active
10	Or4f7 (olfactory receptor family 4 subfamily F member 7)	1	-1.13	1.44	1.15	enough cells to score	inactive
11	Cox16 (cytochrome c oxidase assembly protein 16)	1		1.5	1.4	fewer than 50 cells per well; well left out of scoring	inactive
12	Mrgprh (MAS-related GPR, member H)	1		1.56	0	fewer than 50 cells per well; well left out of scoring	inactive
13	Stt3a	1		1.35	1.1	fewer than 50 cells per well; well left out of scoring	inactive
14	Ehd1 (EH-domain containing 1)	1	0.41	1.56	1.38	enough cells to score	inactive
15	Hdc (histidine decarboxylase)	1	0	1.7	1.49	enough cells to score	inactive
16	Serpinb6b (serine (or cysteine) peptidase inhibitor, clade B, member 6b)	1	0.14	1.32	1.27	enough cells to score	inactive
17	Plbd1 (phospholipase B domain containing 1)	1	2.28	1.92	1.7	enough cells to score	inactive
18	Tacr2 (tachykinin receptor 2)	1	-1.65	1.28	1.1	enough cells to score	active
19	Spns1 (SPNS lysolipid transporter 1, lysophospholipid)	1		1.39	1.45	fewer than 50 cells per well; well left out of scoring	inactive
20	Plpbp (pyridoxal phosphate binding protein)	1	1.58	1.61	1.37	enough cells to score	inactive
21	Ubl3 (ubiquitin-like 3)	1	-0.77	1.39	1.41	enough cells to score	inactive
22	Cspg4 (chondroitin sulfate proteoglycan 4)	1	0.13	1.6	1.8	enough cells to score	inactive
23	Ppp1r16b (protein phosphatase 1, regulatory subunit 16B)	1	0.93	1.65	1.51	enough cells to score	inactive
24	Il22ra2 (interleukin 22 receptor, alpha 2)	1	-0.34	1.41	1.35	enough cells to score	inactive
25	Supt6 (SPT6, histone chaperone and transcription elongation factor)	1		1.19	1.69	fewer than 50 cells per well; well left out of scoring	inactive
26	B230317F23Rik (RIKEN cDNA B230317F23 gene)	1	-0.59	1.49	1.45	enough cells to score	inactive
27	Slc38a11	1	0.92	1.54	1.68	enough cells to score	inactive
28	Ackr5 (atypical chemokine receptor 5)	1	1.36	1.66	1.82	enough cells to score	inactive
29	Adgrg1 (adhesion G protein-coupled receptor G1)	1	-2.69	1.27	1.2	enough cells to score	active
30	Taar8a (trace amine-associated receptor 8A)	1	-0.37	1.46	1.52	enough cells to score	inactive
31	Cemip2 (cell migration inducing hyaluronidase 2)	1	-0.98	1.24	1.1	enough cells to score	inactive
32	Psg16 (pregnancy specific beta-1-glycoprotein 16)	1	0.08	1.39	1.28	enough cells to score	inactive
33	Rimkla (ribosomal modification protein rimK-like family member A)	1	0.88	1.53	1.66	enough cells to score	inactive
34	Rmp64 (ribonuclease MRP subunit p64)	1	0.22	1.7	1.78	enough cells to score	inactive
35	Lhfpl6 (LHFPL tetraspan subfamily member 6)	1	0.33	1.58	1.74	enough cells to score	inactive
36	Or52d3 (olfactory receptor family 52 subfamily D member 3)	1	0.58	1.52	1.34	enough cells to score	inactive
37	Rrm2b (ribonucleotide reductase M2 B (TP53 inducible))	1	-0.69	1.45	1.39	enough cells to score	inactive
38	G3bp1 (G3BP stress granule assembly factor 1)	1	0.17	1.48	1.41	enough cells to score	inactive
39	Ssh1 (slingshot protein phosphatase 1)	1		1.28	1.28	fewer than 50 cells per well; well left out of scoring	inactive
40	Avpr1a (arginine vasopressin receptor 1A)	1	0.46	1.85	1.38	enough cells to score	inactive
41	Avpr1a (arginine vasopressin receptor 1A)	1	0.67	1.54	1.74	enough cells to score	inactive
42	Klhdc10 (kelch domain containing 10)	1	-0.83	1.49	1.49	enough cells to score	inactive
43	Osbpl1a (oxysterol binding protein-like 1A)	1	-0.31	1.4	1.38	enough cells to score	inactive
44	Osbpl1a (oxysterol binding protein-like 1A)	2	0.42	1.65	1.52	enough cells to score	inactive
45	Stbd1 (starch binding domain 1)	1	1.43	1.71	1.82	enough cells to score	inactive
46	Fanci (Fanconi anemia, complementation group I)	1	0.69	1.77	1.86	enough cells to score	inactive
47	Hoxb1 (homeobox B1)	1	-0.16	1.4	1.37	enough cells to score	inactive
48	Ddx19b (DEAD box helicase 19b)	1		1.14	0.779	fewer than 50 cells per well; well left out of scoring	inactive
49	Spats2 (spermatogenesis associated, serine-rich 2)	1	0.78	1.52	1.32	enough cells to score	inactive
50	Gdi2 (GDP dissociation inhibitor 2)	1	0.21	1.57	1.55	enough cells to score	inactive
51	Gdi2 (GDP dissociation inhibitor 2)	2	-2.71	1.03	1.07	enough cells to score	active
52	Qtman (queuosine-tRNA mannosyltransferase)	1	-0.07	1.46	1.35	enough cells to score	inactive
53	Nudcd1 (NudC domain containing 1)	1	1.84	1.43	1.57	enough cells to score	inactive
54	Pcna (proliferating cell nuclear antigen)	1	-1.42	1.31	1.18	enough cells to score	inactive
55	Or5b96 (olfactory receptor family 5 subfamily B member 96)	1	-0.76	1.45	1.36	enough cells to score	inactive
56	Piwil1 (piwi-like RNA-mediated gene silencing 1)	1	-0.46	1.51	1.28	enough cells to score	inactive
57	Csnk1g1 (casein kinase 1, gamma 1)	1	-0.5	1.59	1.34	enough cells to score	inactive
58	Gp1ba (glycoprotein 1b, alpha polypeptide)	1	-0.17	1.37	1.39	enough cells to score	inactive
59	Uchl3	1	-0.78	1.37	1.43	enough cells to score	inactive
